PubChem BioAssay AID493014 (National Center for Advancing Translational Sciences (NCATS), 2011)
About 170 (0.05%) of roughly 340,000 compounds were called active. Inconclusive results, whose numbers are uncertain, are shown with a selection of clear calls. Calls follow the shape of the dose curve; as a rule, active = well fitted inhibition curve with a large enough effect in the signal ratio, with a control signal flat (not every such curve was filed as active); inconclusive = small, poorly fitted or top-dose-only effect, or effect the other way, or a change in a side signal; inactive = flat fitted curve, though single readings scatter; the % refers to the signal ratio. Where the call is inconclusive, the potency comes from a doubtful curve fit.

experiment: qHTS Assay to Find Inhibitors of Chronic Active B-Cell Receptor Signaling; conditions: ABC-DLBCL IkBa-CBG/CBR reporter, luminescence ratio (green luciferase fused to IkBa over red control in TMD8 lymphoma cells), 4 h; activity change, negative = inhibition: at 46.1 µM (top of the series);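 as to activity change, negative = inhibition: plate controls were basal doxycycline-induced cells for no effect and cells given 10 µM MG132 for full effect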
How it was run: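 Compounds up to 46 uM were incubated four hours with TMD8 cells whose green CBG68 luciferase is fused to IkappaBalpha; red CBR luminescence normalised the signal, and concentration-effect curves were fitted to fusion, red and ratio data.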
Potency is read from the fitted curve at half-maximal effect.

Compound	activity change, negative = inhibition	Potency
CCOC(=O)c1c(C)nc(C)c(C(=O)OCC)c1-c1ccc(Br)cc1	inconclusive: 23%	
COc1ccc(-c2c(C)oc3ccc(C)cc23)cc1	inconclusive: 8.27%	
Nc1nc(CN2CCc3ccccc3C2)nc(Nc2ccccc2)n1		inconclusive: 29.1 µM [falling, single point]
O=C(CN1CCN(Cc2ccc3c(c2)OCO3)CC1)N1CCc2[nH]c3ccc(F)cc3c2C1		inconclusive: 14.6 µM [falling, partial curve, poor fit]
O=C1C(Cc2ccccc2)Nc2ncnc(N3CCN(c4ccccc4)CC3)c2N1Cc1ccccc1 (stereo unspecified)	inactive: -0.146%	
N#CCCNC(=O)Cn1c(COc2ccc(Cl)cc2)nc2ccccc21		inconclusive: 29.1 µM [falling, single point]
Cc1cc(Br)ccc1NC(=O)CN(C)C(=O)CNC(=O)Cc1ccccc1	inconclusive: -17.3%	
Cc1ccc(NC(=O)COC(=O)CN2CCCCCC2=O)c(C)c1	inconclusive: 3.31%	
CCCc1cc(=O)[nH]c(Nc2ccc(OC)c(Cl)c2)n1		inconclusive: 5.8 µM [falling, partial curve, poor fit]
C=CS(=O)(=O)N(Cc1ccc(Cl)c(Cl)c1)C[C@@H](O)CO		inconclusive: 8.2 µM [falling, partial curve]
COc1ccc(-n2c(-c3ccco3)n[nH]c2=S)cc1	inactive: 0.0237%	
CS(=O)(=O)N(CC(=O)Nc1ccc(CC#N)cc1)c1ccc(C23CC4CC(CC(C4)C2)C3)cc1	inconclusive: 6.8%	
COC(=O)c1sc2nc(N3CCCCC3)c3c(c2c1N)CCCC3	inconclusive: -0.524%	
CCCCC(=O)Nc1ccc(C(=O)NNC(=S)NC(=O)c2ccccc2[N+](=O)[O-])cc1	inactive: -2.59%	
Cc1cccc(OCCCC(=O)Nc2nnc(C3CCCO3)s2)c1C (stereo unspecified)	inactive: 0.44%	
CC(C)(C)[C@@H]1COC(=O)[C@H](Cc2ccc(F)cc2)CC/C=C\C[C@@H](CC(=O)N(CCO)Cc2ccccc2)C(=O)N1	inconclusive: -2.62%	
O=C(Oc1ccc2c(c1)O/C(=C\c1ccncc1)C2=O)c1cccs1	inconclusive: -10.2%	
CCN1CCN(Cc2c(O)ccc3c(=O)c(-c4ccc(OC)c(OC)c4)c(C)oc23)CC1	inconclusive: 0.894%	
CC(=O)N1CCC(C(=O)Nc2ccccc2)(N(Cc2ccccc2)C(=O)c2cccnc2)CC1	inconclusive: -0.366%	
COC(=O)C1=CNC=C(C(=O)OC)C1c1cccc2ccccc12	inconclusive: 1.91%	
CCc1ccc(S(=O)(=O)/N=C2/C=C(Sc3ncn[nH]3)C(=O)c3ccccc32)cc1		inconclusive: 14.6 µM [cytotoxic, partial curve]
CCCNc1nc2c(c(=O)n(C)c(=O)n2C)n1CCC(C)C	inconclusive: 10.5%	
CCCCCCC(=O)Nc1nc(C)c(-c2csc(Nc3ccccc3OC)n2)s1	inconclusive: -13.4%	
CN1C(=O)[C@H]2[C@@H](C3CC3)N3C(=O)CN(Cc4ccc(-c5ccccc5)cc4)C(=O)[C@@]3(C)[C@H]2C1=O	inconclusive: -6.6%	
O=C(CNc1ccc(Br)cc1)c1ccc(Br)s1	inconclusive: -13.5%	
CCc1ccccc1NC(=O)CSc1nc2n[nH]c(C)c2c(=N)n1-c1cccc(C)c1		inconclusive: 35.5 µM [falling, single point]

Shown field by field: 3 of the compounds above.
O=C1C(Cc2ccccc2)Nc2ncnc(N3CCN(c4ccccc4)CC3)c2N1Cc1ccccc1 (stereo unspecified)
  activity change, negative = inhibition: inactive: -0.146%
N#CCCNC(=O)Cn1c(COc2ccc(Cl)cc2)nc2ccccc21
  Potency: inconclusive: 29.1 µM [falling, single point]
Cc1cc(Br)ccc1NC(=O)CN(C)C(=O)CNC(=O)Cc1ccccc1
  activity change, negative = inhibition: inconclusive: -17.3%

Further results:

Compound	activity change, negative = inhibition	Potency
Cc1ccc2oc(=O)c3cnn(CC(=O)NCCc4ccsc4)c3c2c1	inconclusive: -16.1%	
CC(=O)c1c(C)nc(-c2ccc3c(c2)OCO3)n1O		inconclusive: 12.6 µM [falling, partial curve, poor fit]
CCOC(=O)c1nn(-c2ccccc2)c2nc(-c3ccc(OC)cc3)c(C#N)c(=O)n12	inactive: 0.276%	
Cc1cc(C(C)(C)C)oc1C(=O)Nc1ccc(CC(=O)O)cc1	inconclusive: -9.88%	
O=C(NCc1nc2ccccc2[nH]1)C1=C[C@H](C2CC2)C[C@H](OCc2ccc(CO)cc2)O1		inconclusive: 25.1 µM [falling, partial curve]
Nc1ccc(C(=O)n2c3ccccc3c3ccccc32)cc1	inconclusive: 2.72%	
Cc1ccc(SCC(=O)Nc2nccs2)cc1	inconclusive: 3.65%	
CCC(C)n1c(-c2cc(OC)c(OC)c(OC)c2)nc2nc3ccccc3nc21 (stereo unspecified)	inconclusive: 1.41%	
COc1ccccc1C(=O)NCC(=O)Nc1ccc2c(c1)OCO2	inactive: -6.82%	
CCOC(=O)C1CCN(C(=O)c2cc3ccc(OC)cc3[nH]2)CC1		inconclusive: 11.2 µM [falling, partial curve]
CCOC(=O)c1cn2nc(-c3ccc(OCC)cc3)cc2nc1C1CCN(C(=O)OC(C)(C)C)CC1	inactive: -1.32%	
COc1cccc(NC(=O)c2csc3c2CCCC3)c1	inactive: 0.513%	
COc1ccc(NC(=O)c2ccco2)cc1NC(=O)c1ccc(Br)o1	inconclusive: -1.62%	
COC(=O)c1ccc(C(C(=O)NC2CCCCC2)N(Cc2ccccc2)C(=O)Cc2cccs2)cc1 (stereo unspecified)	inactive: -0.726%	
Cc1ccc(NC(=O)CS(=O)(=O)c2cn(CC(=O)N3CCOCC3)c3ccccc23)cc1		inconclusive: 3.98 µM [falling, partial curve]
COc1ccc(OC)c(-c2csc(N(CC3CCCO3)C(=O)Cc3ccccc3)n2)c1 (stereo unspecified)	inactive: -1.29%	
CCOC(=O)C1CCN(C(=O)c2ccc(Oc3cc(Cl)cc(Cl)c3)o2)CC1	inconclusive: -2.82%	
Cc1nc(SCC(=O)NCCc2ccccc2)nc(C)c1C		inconclusive: 29.1 µM [rising, single point]
CCCc1cc(=O)[nH]c(SCC(=O)c2cc(C)n(C3CC3)c2C)n1	inconclusive: -17%	
Cc1ccc(-c2csc(/C(C#N)=C(\O)CCl)n2)cc1	inconclusive: 18.6%	
COc1ccc2oc(C(=O)C3CC3)c(N)c2c1	inactive: 0.852%	
CCN(CC)CCSc1nnc2c3cc(C)ccc3n(Cc3ccccc3)c2n1	inconclusive: 22.6%	
Cc1cccc2c(=O)cc(C)n(Cc3ccccc3)c12	inconclusive: 3.87%	
Cc1nc2c(C)cccc2cc1C(=O)N/N=C/c1ccc(N(C)C)cc1	inconclusive: -17.5%	
Cc1nn(CC(=O)NC2CCC(C)CC2)c(C)c1[N+](=O)[O-] (stereo unspecified)	inactive: 1.6%	
Cc1ccc(NC(=O)CSc2nc3nc(C)cc(C)c3c(=O)[nH]2)cc1		inconclusive: 29.1 µM [rising, single point]

Compound	activity change, negative = inhibition	Potency
C(=C\c1nccc2c1[nH]c1ccccc12)/c1ccccc1		inconclusive: 22.4 µM [falling, single point]
Cc1cccc(NC(=O)c2n[nH]c([N+](=O)[O-])c2Br)c1C	inconclusive: -11.1%	
Cc1cccc(-c2cccc(NC(=O)C3CCCN(C(=O)c4ocnc4C)C3)c2)c1 (stereo unspecified)	inconclusive: -0.377%	
c1ccc(C(c2ccccc2)c2noc(CN3CCN(CC4CC4)CC3)n2)cc1		inconclusive: 0.282 µM [falling, full curve, poor fit]
CCN(CC)S(=O)(=O)c1cccc(-c2nnc(SCC(N)=O)n2C)c1	inactive: 0.261%	
NS(=O)(=O)c1ccc(NC(=O)CSc2nc3ccccc3nc2N2CCOCC2)cc1		inconclusive: 11.2 µM [rising, partial curve, poor fit]
CCOC(=O)c1ccc(S(=O)(=O)N2CCN(C(=O)C3CSC4(C)CCC(=O)N34)CC2)cc1 (stereo unspecified)	inactive: -0.924%	
Cc1ccc(NC(=O)CN(C)C(=O)COC(=O)c2ccc(NC(=O)CC#N)cc2)cc1		inconclusive: 14.6 µM [falling, partial curve, poor fit]
Cc1cc(NS(=O)(=O)c2ccc(NC(=O)COc3ccc(Br)cc3)cc2)nc(C)n1	inactive: 0.476%	
Cc1ccnc(NC(=O)CNC(=O)c2ccc3ccccc3c2)c1	inconclusive: 3.12%	
COc1ccc(OC)c(/C=N/NC(=O)c2ccc(N(C)S(=O)(=O)c3ccccc3)cc2)c1	inconclusive: -11.2%	
Cc1nc(CC(=O)O)c(-c2ccccc2)s1	inconclusive: 5.35%	
CCC(C)N(C(=O)COC(=O)c1nc(Cl)ccc1Cl)C1CCS(=O)(=O)C1 (stereo unspecified)		inconclusive: 5.8 µM [falling, partial curve, poor fit]
C=C(C)c1cccc(C(C)(C)NC(=O)N2CCCCC2CC)c1 (stereo unspecified)	inconclusive: 8.39%	
O=C(Oc1ccccc1-c1nnco1)c1ccc(Cl)cc1	inconclusive: -15%	
CS(=O)(=O)N1CCN(c2ccccc2NC(=O)c2ccc(-c3ccc(Br)cc3)o2)CC1		inconclusive: 4.61 µM [rising, partial curve, poor fit]
O=C(N/N=C\c1ccc2c(c1)OCO2)c1ccc(Cn2cc(Br)c([N+](=O)[O-])n2)o1		inconclusive: 4.47 µM [falling, partial curve, poor fit]
Cc1ccc(NC(=O)C(=O)NCC2CCCO2)cc1 (stereo unspecified)		inconclusive: 11.2 µM [falling, partial curve]
O=C(Nc1ccc(F)c(F)c1)c1cc(S(=O)(=O)NCc2ccc3c(c2)OCO3)ccc1F	inactive: 2.77%	
Cc1cccc(NS(=O)(=O)c2cc(C(=O)NCCC3=CCCCC3)ccc2Cl)c1	inconclusive: 10.3%	
CN1/C(=C\C(=O)COC(=O)CNC(=O)c2ccc3ccccc3c2)C(C)(C)c2ccccc21		inconclusive: 32.6 µM [falling, partial curve, poor fit]
Cc1nc([N+](=O)[O-])c(Sc2nc3ccccc3n2C)n1Cc1ccccc1	inconclusive: 10.5%	
Cc1cc(S(=O)(=O)N2CCCc3ccccc32)ccc1-n1cnnn1	inactive: -3.94%	
O=C(COC(=O)c1ccc(O)cc1)Nc1ccc(N2CCCCC2)cc1	inactive: 24.1%	
